Results from PMC9395532.
No constants are given. Whether binding was seen depends on the method and setting. In cells and extracts the contact can be indirect. Some binding calls cover weakened binding; strength is not graded here.

Target: T1, VAMP7 (mouse (endogenous in brain cortex)), P70280
T1 chain: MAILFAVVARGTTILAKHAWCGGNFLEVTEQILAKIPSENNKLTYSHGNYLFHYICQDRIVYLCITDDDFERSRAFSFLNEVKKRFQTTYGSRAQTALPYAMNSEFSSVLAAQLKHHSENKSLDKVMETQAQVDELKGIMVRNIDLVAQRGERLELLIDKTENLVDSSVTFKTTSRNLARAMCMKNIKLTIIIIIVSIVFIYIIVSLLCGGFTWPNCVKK
Assay: co-IP; post-nuclear supernatant of mouse brain cortex homogenate in PBS with 0.1% Triton X-100; antibody 2 h at 4 °C, then protein-G Sepharose 1 h; five washes with lysis buffer; eluate boiled 20 min; immunoblot
Conditions: remark: other sources report otherwise

B1: SNAP23, O09044 1-210 (protein)
chain: MDNLSPEEVQLRAHQVTDESLESTRRILGLAIESQDAGIKTITMLDEQGEQLNRIEEGMDQINKDMREAEKTLTELNKCCGLCICPCNRTKNFESGKNYKATWGDGGDNSPSNVVSKQPSRITNGQPQQTTGAASGGYIKRITNDAREDEMEENLTQVGSILGNLKNMALDMGNEIDAQNQQIQKITEKADTNKNRIDIANTRAKKLIDS
  binding: binds
